# The other results are listed elsewhere or left out.
# By UniProt entry, the sequences of proteins in these tests, tags left out. Where a name states a change or a piece, a line headed by the entry shows the natural chain unless it says otherwise.
# UniProt Q16181: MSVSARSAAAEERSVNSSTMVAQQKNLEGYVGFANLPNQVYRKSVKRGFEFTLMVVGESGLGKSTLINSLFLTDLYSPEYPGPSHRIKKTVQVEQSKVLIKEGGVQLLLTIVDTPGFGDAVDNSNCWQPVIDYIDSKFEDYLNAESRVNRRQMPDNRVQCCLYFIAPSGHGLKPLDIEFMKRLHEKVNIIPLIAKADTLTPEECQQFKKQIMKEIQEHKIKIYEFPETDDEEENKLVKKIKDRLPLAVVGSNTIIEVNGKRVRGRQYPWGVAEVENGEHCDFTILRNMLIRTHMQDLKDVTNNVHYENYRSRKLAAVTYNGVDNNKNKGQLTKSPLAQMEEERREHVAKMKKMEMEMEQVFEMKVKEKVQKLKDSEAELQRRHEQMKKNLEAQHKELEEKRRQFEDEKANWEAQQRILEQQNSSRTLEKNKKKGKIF
# UniProt P84101: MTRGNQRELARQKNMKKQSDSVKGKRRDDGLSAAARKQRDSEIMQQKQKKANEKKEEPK
# UniProt Q8N6T7, whole entry, looked up: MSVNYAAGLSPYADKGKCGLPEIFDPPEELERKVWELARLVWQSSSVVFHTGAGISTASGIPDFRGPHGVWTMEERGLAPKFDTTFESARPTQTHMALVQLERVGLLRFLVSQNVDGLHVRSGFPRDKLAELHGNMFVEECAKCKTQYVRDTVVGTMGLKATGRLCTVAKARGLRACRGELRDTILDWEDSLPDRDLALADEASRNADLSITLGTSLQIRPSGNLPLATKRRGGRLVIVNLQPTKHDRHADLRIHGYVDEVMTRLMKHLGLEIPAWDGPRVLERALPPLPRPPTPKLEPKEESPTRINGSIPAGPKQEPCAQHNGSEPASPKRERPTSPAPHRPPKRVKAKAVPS
# UniProt P36952: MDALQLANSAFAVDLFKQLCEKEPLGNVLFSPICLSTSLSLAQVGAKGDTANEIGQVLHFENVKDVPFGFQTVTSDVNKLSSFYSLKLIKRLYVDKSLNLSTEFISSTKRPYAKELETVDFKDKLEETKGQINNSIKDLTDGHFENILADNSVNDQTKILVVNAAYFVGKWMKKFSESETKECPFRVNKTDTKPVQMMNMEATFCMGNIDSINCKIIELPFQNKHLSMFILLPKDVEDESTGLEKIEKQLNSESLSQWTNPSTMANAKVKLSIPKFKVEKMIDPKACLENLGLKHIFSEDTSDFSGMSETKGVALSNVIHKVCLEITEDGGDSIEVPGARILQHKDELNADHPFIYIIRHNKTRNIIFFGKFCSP
# UniProt Q9BRG2: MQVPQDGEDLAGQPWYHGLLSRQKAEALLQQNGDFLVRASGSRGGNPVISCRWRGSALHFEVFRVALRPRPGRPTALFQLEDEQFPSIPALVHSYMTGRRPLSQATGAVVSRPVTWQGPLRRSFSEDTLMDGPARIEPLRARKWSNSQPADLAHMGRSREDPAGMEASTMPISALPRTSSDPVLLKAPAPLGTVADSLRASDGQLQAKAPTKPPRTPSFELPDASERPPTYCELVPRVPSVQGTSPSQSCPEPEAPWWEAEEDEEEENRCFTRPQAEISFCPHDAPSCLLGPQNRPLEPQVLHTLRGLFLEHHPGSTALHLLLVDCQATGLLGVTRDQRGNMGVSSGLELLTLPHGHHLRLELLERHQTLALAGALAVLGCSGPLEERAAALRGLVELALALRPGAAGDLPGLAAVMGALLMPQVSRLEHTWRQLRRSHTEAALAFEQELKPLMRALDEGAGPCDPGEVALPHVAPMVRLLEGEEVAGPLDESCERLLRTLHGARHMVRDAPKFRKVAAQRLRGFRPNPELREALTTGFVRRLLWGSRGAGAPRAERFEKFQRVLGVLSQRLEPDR
# UniProt Q8WVK7: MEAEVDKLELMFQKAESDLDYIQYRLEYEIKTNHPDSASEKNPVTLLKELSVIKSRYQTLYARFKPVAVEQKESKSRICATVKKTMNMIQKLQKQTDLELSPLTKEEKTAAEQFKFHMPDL
# UniProt Q9NP50: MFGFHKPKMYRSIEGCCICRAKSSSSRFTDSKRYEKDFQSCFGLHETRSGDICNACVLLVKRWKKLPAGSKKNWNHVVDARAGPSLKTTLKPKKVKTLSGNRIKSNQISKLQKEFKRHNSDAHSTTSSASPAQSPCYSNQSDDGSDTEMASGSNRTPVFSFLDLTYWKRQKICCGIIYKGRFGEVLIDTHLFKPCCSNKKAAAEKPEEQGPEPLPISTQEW
# UniProt O43255: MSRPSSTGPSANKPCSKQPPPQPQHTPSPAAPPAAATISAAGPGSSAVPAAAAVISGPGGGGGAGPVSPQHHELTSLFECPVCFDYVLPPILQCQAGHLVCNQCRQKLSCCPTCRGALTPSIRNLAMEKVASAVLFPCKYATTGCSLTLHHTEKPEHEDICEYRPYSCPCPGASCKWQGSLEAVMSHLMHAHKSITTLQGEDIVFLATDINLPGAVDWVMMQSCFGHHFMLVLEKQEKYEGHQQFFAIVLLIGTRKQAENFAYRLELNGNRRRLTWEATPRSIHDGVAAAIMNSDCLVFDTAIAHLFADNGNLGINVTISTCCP
# UniProt O75326: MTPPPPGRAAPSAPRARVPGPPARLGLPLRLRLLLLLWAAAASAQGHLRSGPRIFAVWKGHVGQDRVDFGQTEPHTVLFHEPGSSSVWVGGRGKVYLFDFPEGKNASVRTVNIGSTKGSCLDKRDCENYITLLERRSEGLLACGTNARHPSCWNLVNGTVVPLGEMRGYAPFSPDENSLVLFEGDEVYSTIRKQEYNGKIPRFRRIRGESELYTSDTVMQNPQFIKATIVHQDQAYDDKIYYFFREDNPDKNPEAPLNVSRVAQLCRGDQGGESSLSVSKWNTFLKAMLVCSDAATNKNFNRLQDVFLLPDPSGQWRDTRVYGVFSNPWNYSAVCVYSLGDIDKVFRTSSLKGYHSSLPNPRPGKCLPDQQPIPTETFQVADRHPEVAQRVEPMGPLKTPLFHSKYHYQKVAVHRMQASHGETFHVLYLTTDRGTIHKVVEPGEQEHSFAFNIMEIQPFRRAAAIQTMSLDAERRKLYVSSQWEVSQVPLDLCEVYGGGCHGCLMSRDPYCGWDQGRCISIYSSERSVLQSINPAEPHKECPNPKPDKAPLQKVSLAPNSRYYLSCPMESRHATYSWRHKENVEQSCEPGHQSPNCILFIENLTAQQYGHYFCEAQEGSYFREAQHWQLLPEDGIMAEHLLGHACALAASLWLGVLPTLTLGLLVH
# UniProt Q9BYW2: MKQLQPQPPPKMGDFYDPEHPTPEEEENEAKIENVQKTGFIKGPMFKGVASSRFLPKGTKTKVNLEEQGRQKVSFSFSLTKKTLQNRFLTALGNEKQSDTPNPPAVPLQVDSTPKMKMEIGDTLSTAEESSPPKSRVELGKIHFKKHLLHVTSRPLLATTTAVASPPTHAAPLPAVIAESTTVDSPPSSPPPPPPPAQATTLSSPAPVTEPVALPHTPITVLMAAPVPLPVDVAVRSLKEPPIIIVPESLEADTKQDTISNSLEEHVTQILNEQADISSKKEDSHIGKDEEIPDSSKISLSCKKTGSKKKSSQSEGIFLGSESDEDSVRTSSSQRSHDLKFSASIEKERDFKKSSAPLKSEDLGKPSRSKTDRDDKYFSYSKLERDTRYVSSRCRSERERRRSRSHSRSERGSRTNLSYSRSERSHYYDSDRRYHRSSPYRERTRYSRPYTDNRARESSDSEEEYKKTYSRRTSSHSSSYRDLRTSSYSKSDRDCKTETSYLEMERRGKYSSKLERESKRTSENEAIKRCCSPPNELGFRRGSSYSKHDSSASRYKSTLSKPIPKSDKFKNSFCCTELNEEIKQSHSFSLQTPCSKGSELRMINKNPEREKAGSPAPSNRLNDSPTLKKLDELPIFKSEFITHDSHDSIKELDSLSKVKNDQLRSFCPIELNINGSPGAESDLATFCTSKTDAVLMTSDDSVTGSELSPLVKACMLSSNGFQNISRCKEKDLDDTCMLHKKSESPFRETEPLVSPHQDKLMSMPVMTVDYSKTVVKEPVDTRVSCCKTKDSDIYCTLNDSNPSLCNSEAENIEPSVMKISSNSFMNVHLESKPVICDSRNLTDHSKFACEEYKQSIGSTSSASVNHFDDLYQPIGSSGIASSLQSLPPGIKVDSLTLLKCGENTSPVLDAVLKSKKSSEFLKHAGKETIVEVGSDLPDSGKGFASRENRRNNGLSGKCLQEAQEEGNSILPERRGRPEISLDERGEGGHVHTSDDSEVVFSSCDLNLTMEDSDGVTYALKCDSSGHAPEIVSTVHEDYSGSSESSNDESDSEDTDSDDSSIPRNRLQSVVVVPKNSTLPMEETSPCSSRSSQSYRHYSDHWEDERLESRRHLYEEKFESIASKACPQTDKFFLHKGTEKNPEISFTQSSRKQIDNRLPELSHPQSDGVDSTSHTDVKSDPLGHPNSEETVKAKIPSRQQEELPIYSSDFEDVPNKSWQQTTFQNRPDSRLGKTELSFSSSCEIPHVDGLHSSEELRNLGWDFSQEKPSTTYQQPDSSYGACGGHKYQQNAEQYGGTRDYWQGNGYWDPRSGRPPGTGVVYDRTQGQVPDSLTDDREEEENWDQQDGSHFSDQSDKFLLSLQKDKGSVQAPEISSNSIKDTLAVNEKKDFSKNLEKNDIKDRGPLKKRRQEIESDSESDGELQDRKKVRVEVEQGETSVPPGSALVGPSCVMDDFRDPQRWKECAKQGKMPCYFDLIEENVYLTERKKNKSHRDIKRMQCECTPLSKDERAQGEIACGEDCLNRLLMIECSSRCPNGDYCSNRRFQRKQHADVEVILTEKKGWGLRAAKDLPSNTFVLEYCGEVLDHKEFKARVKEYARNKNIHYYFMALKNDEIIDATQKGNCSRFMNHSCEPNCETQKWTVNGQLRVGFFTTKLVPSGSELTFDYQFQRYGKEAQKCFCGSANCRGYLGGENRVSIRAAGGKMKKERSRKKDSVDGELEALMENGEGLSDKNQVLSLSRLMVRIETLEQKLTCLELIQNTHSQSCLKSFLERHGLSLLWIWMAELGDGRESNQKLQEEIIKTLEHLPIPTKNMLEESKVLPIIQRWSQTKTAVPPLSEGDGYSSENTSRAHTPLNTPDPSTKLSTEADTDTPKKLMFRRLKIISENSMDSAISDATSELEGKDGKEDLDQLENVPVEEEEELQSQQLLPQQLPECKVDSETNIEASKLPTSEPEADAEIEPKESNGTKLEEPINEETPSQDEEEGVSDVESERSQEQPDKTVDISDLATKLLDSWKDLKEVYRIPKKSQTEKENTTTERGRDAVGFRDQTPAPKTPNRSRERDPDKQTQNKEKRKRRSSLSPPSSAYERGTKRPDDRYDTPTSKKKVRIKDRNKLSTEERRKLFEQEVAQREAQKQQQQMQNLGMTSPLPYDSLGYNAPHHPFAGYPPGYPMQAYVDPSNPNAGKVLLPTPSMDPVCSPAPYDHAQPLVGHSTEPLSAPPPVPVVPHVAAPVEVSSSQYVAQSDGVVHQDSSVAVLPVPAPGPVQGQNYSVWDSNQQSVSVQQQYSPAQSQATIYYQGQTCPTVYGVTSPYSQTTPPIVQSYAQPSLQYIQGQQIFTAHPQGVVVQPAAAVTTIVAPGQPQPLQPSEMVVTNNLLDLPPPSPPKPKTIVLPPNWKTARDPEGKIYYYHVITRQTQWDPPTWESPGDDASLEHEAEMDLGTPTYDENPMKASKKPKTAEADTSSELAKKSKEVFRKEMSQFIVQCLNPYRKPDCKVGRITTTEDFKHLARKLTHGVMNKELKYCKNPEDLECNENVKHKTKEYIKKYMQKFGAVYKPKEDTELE
# UniProt Q9NZV5, whole entry, looked up: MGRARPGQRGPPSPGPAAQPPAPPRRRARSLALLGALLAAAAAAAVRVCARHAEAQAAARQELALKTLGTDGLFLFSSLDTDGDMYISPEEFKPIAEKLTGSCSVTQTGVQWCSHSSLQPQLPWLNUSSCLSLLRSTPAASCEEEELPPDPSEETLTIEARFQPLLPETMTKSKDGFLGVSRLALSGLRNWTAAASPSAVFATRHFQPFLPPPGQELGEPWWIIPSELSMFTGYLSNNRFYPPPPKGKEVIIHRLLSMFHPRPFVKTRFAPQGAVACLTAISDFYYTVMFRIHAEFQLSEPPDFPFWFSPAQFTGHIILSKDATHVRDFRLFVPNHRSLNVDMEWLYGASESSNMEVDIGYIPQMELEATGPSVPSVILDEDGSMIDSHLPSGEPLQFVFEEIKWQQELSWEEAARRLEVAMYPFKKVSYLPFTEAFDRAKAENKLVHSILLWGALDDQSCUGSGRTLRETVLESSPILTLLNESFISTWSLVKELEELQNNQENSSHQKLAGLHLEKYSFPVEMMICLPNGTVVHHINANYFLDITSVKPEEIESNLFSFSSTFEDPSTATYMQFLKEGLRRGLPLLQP
# UniProt Q86XK3: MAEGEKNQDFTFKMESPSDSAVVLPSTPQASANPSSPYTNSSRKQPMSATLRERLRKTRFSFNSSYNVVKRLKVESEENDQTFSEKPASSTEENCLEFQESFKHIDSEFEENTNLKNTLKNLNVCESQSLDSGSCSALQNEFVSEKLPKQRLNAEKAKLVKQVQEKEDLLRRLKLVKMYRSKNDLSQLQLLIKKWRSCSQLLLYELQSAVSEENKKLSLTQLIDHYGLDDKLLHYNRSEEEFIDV
# Columns and labels:
# Experiment in all cases: log2 fold change, soluble protein after heating vs DMSO (PISA); higher = thermal stabilisation; K562 cells, 10 uM, 30 min; active = over 0.2 and 3.5 SD of the protein, either way, in both replicates (recomputed)
# erlotinib = compound: C#Cc1cccc(Nc2ncnc3cc(OCCOC)c(OCCOC)cc23)c1 [erlotinib]
# How it was run: (§1)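 K562 cells at 2×10^6 cells/mL were exposed to 10 μM compound for 30 min, then aliquots were heated for 3 min across 48°C-58°C, pooled, and extracted in PBS containing 0.5% NP-40 at 4°C. The supernatant after 21,000xg for 90 min was taken as soluble protein and measured by TMTpro 16plex LC-MS/MS with channel sums equalised. Thermal stability is reported relative to control samples, with values from duplicates. Fold changes are given on a log2 scale.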
# [1] = compound: C/C(=N\NC(=O)C1=CC(=CC=C1)S(=O)(=O)N2CCOCC2)/C3=C(C=CC(=C3)Cl)O
# How it was run: as §1
# [2] = compound: C1=CC(=C(C=C1Cl)C2=NC3=NC=CN=C3C(=N2)NC4=CC=NC=C4)F
# How it was run: as §1
# [3] = compound: C1=CC(=CC=C1C2=NC3=C(N2)C=C(C=C3)C(=O)N)OC4=CC=C(C=C4)Cl
# How it was run: as §1
# [4] = compound: C1=CC2=C(C=CC(=C2)/C=C\3/C(=O)NC(=NCC4=CC=CS4)S3)N=C1
# How it was run: as §1
# [5] = compound: C1=CC2=NC=CN=C2C=C1/C=C/3\C(=O)NC(=O)S3
# How it was run: as §1
# [6] = compound: C1=CC=C2C(=C1)C3=NNC4=CC=CC(=C43)C2=O
# How it was run: as §1
# [7] = compound: C1CCN(C1)C(=O)NC2=CC=CC(=C2)NC3=NC=C(C(=N3)NCCC4=CN=CN4)Br
# How it was run: as §1
# [8] = compound: C1CN(CCC1(CC2=CC=C(C=C2)Cl)N)C3=NC=NC4=C3C=CN4
# How it was run: as §1
# [9] = compound: C1=CC=C(C=C1)C2=NC(=C(N2)C3=CC=NC=C3)C4=CC(=C(C=C4)Cl)O
# How it was run: as §1
target,measurement,setting,value
SIAH1 isoform 2 (UniProt Q8IUQ4),log2 fold change,erlotinib,inactive: 0.053
same,log2 fold change,[1],inactive: 0.039
same,log2 fold change,[2],inactive: -0.011
same,log2 fold change,[3],inactive: -0.047
same,log2 fold change,[4],inactive: -0.016
same,log2 fold change,[5],inactive: 0.201
same,log2 fold change,[6],inactive: 0.037
same,log2 fold change,[7],inactive: -0.037
same,log2 fold change,[8],inactive: -0.027
SEPTIN7 isoform 2 (UniProt Q16181),log2 fold change,erlotinib,inactive: 0.068
same,log2 fold change,[1],inactive: 0.091
same,log2 fold change,[3],inactive: -0.002
same,log2 fold change,[4],inactive: -0.172
same,log2 fold change,[6],inactive: 0.101
same,log2 fold change,[7],inactive: -0.172
same,log2 fold change,[8],inactive: -0.08
SERF2 (UniProt P84101),log2 fold change,erlotinib,inactive: 0.035
same,log2 fold change,[2],inactive: -0.05
same,log2 fold change,[3],inactive: 0.042
same,log2 fold change,[5],inactive: 0.076
same,log2 fold change,[9],inactive: -0.221
same,log2 fold change,[7],inactive: 0.06
same,log2 fold change,[8],inactive: 0.041
SFXN4 isoform 3 (UniProt Q6P4A7),log2 fold change,erlotinib,inactive: 0.079
same,log2 fold change,[1],inactive: 0.12
same,log2 fold change,[3],inactive: 0.165
same,log2 fold change,[4],inactive: -0.074
same,log2 fold change,[5],inactive: 0.04
same,log2 fold change,[6],inactive: -0.002
same,log2 fold change,[7],inactive: -0.139
same,log2 fold change,[8],inactive: 0.051
SIRT6 (UniProt Q8N6T7),log2 fold change,erlotinib,inactive: 0.019
same,log2 fold change,[1],inactive: 0.111
same,log2 fold change,[2],inactive: -0.148
same,log2 fold change,[3],inactive: -0.084
same,log2 fold change,[4],inactive: -0.022
same,log2 fold change,[5],inactive: -0.301
same,log2 fold change,[9],inactive: -0.019
same,log2 fold change,[6],inactive: 0.019
same,log2 fold change,[7],inactive: -0.12
same,log2 fold change,[8],inactive: 0.041
SH3BP1 (UniProt Q9Y3L3),log2 fold change,erlotinib,inactive: 0.017
same,log2 fold change,[1],inactive: 0.035
same,log2 fold change,[2],inactive: 0.046
same,log2 fold change,[3],inactive: 0.027
same,log2 fold change,[4],inactive: 0.05
same,log2 fold change,[5],inactive: 0.026
same,log2 fold change,[9],inactive: 0.017
same,log2 fold change,[6],inactive: -0.008
same,log2 fold change,[7],inactive: -0.025
same,log2 fold change,[8],inactive: 0.03
SIK3 (UniProt H0Y4E8),log2 fold change,erlotinib,inactive: -0.074
same,log2 fold change,[1],inactive: 0.045
same,log2 fold change,[3],inactive: 0.094
same,log2 fold change,[4],inactive: 0.074
same,log2 fold change,[9],inactive: -0.163
same,log2 fold change,[6],inactive: -0.099
same,log2 fold change,[7],inactive: 0.051
same,log2 fold change,[8],inactive: 0.15
SH3BGR (UniProt P55822),log2 fold change,erlotinib,inactive: 0.101
same,log2 fold change,[1],inactive: -0.071
same,log2 fold change,[2],inactive: -0.177
same,log2 fold change,[3],inactive: -0.089
same,log2 fold change,[4],inactive: 0
same,log2 fold change,[5],inactive: 0.131
same,log2 fold change,[6],inactive: 0.011
SERPINB5 (UniProt P36952),log2 fold change,[5],inactive: -0.162
same,log2 fold change,[9],inactive: -0.197
same,log2 fold change,[7],inactive: -0.045
same,log2 fold change,[8],inactive: -0.125
SH2D3A (UniProt Q9BRG2),log2 fold change,erlotinib,inactive: -0.034
same,log2 fold change,[3],inactive: 0.048
same,log2 fold change,[9],inactive: -0.006
SIVA1 (UniProt O15304),log2 fold change,[2],inactive: -0.326
SKA2 (UniProt Q8WVK7),log2 fold change,[9],inactive: -0.103
SH3GL3 isoform 3 (UniProt Q99963),log2 fold change,[9],inactive: -0.014
same,log2 fold change,[7],inactive: -0.05
same,log2 fold change,[8],inactive: 0.242
SELENOI (UniProt Q9C0D9),log2 fold change,[9],inactive: 0.15
SEMG2 (UniProt Q02383),log2 fold change,[1],inactive: 1.75
same,log2 fold change,[2],inactive: 0.047
same,log2 fold change,[4],inactive: 0.237
same,log2 fold change,[5],inactive: -0.042
same,log2 fold change,[6],active: -0.562
same,log2 fold change,[7],inactive: -0.071
same,log2 fold change,[8],inactive: 0.06
SINHCAF (UniProt Q9NP50),log2 fold change,[2],inactive: -0.142
SIAH2 (UniProt O43255),log2 fold change,[1],inactive: 0.014
same,log2 fold change,[4],inactive: 0.087
same,log2 fold change,[5],inactive: 0.045
same,log2 fold change,[9],inactive: -0.05
same,log2 fold change,[6],inactive: -0.042
SEMA7A (UniProt O75326),log2 fold change,[2],inactive: -0.205
same,log2 fold change,[9],inactive: -0.045
SEPTIN2 (UniProt B5MCX3),log2 fold change,[1],inactive: -0.226
same,log2 fold change,[4],inactive: 0.263
same,log2 fold change,[9],inactive: -0.463
same,log2 fold change,[6],inactive: 0.035
same,log2 fold change,[7],inactive: 0.217
same,log2 fold change,[8],inactive: 0.091
SESN1 isoform 2 (UniProt Q9Y6P5),log2 fold change,[7],inactive: 0.018
same,log2 fold change,[8],inactive: -0.144
SERPINB7 (UniProt O75635),log2 fold change,[1],inactive: -0.354
same,log2 fold change,[4],inactive: 0.167
same,log2 fold change,[5],inactive: -0.031
same,log2 fold change,[6],inactive: 0.06
same,log2 fold change,[7],inactive: -0.047
same,log2 fold change,[8],inactive: 0.085
SHANK2 isoform 3 (UniProt Q9UPX8),log2 fold change,[2],inactive: -0.082
SHFL (UniProt Q9NUL5),log2 fold change,[1],inactive: -0.156
same,log2 fold change,[2],inactive: -0.094
same,log2 fold change,[4],inactive: 0.244
same,log2 fold change,[5],inactive: 0.004
same,log2 fold change,[9],inactive: 0.013
same,log2 fold change,[6],inactive: -0.116
same,log2 fold change,[7],inactive: -0.203
same,log2 fold change,[8],inactive: -0.295
SF1 (UniProt H7C0N4),log2 fold change,[1],inactive: 0.022
same,log2 fold change,[4],inactive: -0.148
same,log2 fold change,[5],inactive: 0.076
same,log2 fold change,[9],inactive: -0.033
same,log2 fold change,[6],inactive: 0.055
same,log2 fold change,[7],inactive: -0.161
same,log2 fold change,[8],inactive: 0.006
SIX5 (UniProt Q8N196),log2 fold change,[1],inactive: 0.027
same,log2 fold change,[4],inactive: -0.043
same,log2 fold change,[5],inactive: 0.022
same,log2 fold change,[9],inactive: -0.011
same,log2 fold change,[6],inactive: -0.084
SFXN1 (UniProt D6RDG7),log2 fold change,[7],inactive: 0.163
same,log2 fold change,[8],inactive: 0.039
SFT2D1 (UniProt Q8WV19),log2 fold change,[1],inactive: 0.046
same,log2 fold change,[4],inactive: 0.008
same,log2 fold change,[9],inactive: -0.045
same,log2 fold change,[6],inactive: 0.158
SERPINA3 (UniProt P01011),log2 fold change,[2],inactive: 0.034
SKA1 (UniProt Q96BD8),log2 fold change,[2],inactive: -0.234
same,log2 fold change,[9],inactive: -0.037
SERPING1 isoform 3 (UniProt P05155),log2 fold change,erlotinib,inactive: -0.309
same,log2 fold change,[3],inactive: 0.292
same,log2 fold change,[7],inactive: 0.109
same,log2 fold change,[8],inactive: 0.15
"SERPINB6, A0A2R8Y7E5",log2 fold change,[2],inactive: -0.058
same,log2 fold change,[5],inactive: -0.251
SETD2 (UniProt Q9BYW2),log2 fold change,[1],inactive: -0.063
same,log2 fold change,[4],inactive: -0.049
same,log2 fold change,[6],inactive: -0.03
same,log2 fold change,[7],inactive: 0.019
same,log2 fold change,[8],inactive: 0.259
SIK2 (UniProt Q9H0K1),log2 fold change,erlotinib,inactive: -0.133
same,log2 fold change,[3],inactive: 0.126
same,log2 fold change,[5],inactive: 0.27
same,log2 fold change,[9],inactive: 0.02
SF1 (UniProt H7BZT1),log2 fold change,[9],inactive: -0.157
SHROOM4 (UniProt Q9ULL8),log2 fold change,[1],inactive: -0.262
same,log2 fold change,[4],inactive: -0.165
same,log2 fold change,[6],inactive: -0.006
SERPINA12 (UniProt Q8IW75),log2 fold change,[2],inactive: -0.131
same,log2 fold change,[7],inactive: -0.08
same,log2 fold change,[8],inactive: -0.355
SHC1 (UniProt P29353),log2 fold change,[1],inactive: 0.032
same,log2 fold change,[4],inactive: 0.083
same,log2 fold change,[6],inactive: 0.032
SHB (UniProt Q15464),log2 fold change,[1],inactive: 0.129
same,log2 fold change,[4],inactive: 0.019
same,log2 fold change,[5],inactive: -0.134
same,log2 fold change,[6],inactive: 0.036
same,log2 fold change,[7],inactive: -0.198
same,log2 fold change,[8],inactive: 0.081
SECISBP2 (UniProt Q96T21),log2 fold change,[9],inactive: -0.078
same,log2 fold change,[7],inactive: -0.134
same,log2 fold change,[8],inactive: 0.292
SELENON (UniProt Q9NZV5),log2 fold change,[1],inactive: -0.231
same,log2 fold change,[4],inactive: 0.098
same,log2 fold change,[9],inactive: -0.126
same,log2 fold change,[6],inactive: -0.037
SFR1 isoform 2 (UniProt Q86XK3),log2 fold change,[2],inactive: 0.026
same,log2 fold change,[5],inactive: 0.006
same,log2 fold change,[9],inactive: -0.13

# Some of the entries so far, with tabs:
target	measurement	setting	value
SFT2D1 (UniProt Q8WV19)	log2 fold change	[6]	inactive: 0.158
SERPINA3 (UniProt P01011)	log2 fold change	[2]	inactive: 0.034
SKA1 (UniProt Q96BD8)	log2 fold change	[2]	inactive: -0.234

# As a working copy, some entries already given:
target,measurement,setting,value
SERF2 (UniProt P84101),log2 fold change,[3],inactive: 0.042
same,log2 fold change,[5],inactive: 0.076
same,log2 fold change,[9],inactive: -0.221
same,log2 fold change,[7],inactive: 0.06
same,log2 fold change,[8],inactive: 0.041
SFXN4 isoform 3 (UniProt Q6P4A7),log2 fold change,erlotinib,inactive: 0.079

# From the supplement of paper PMC10849652
